According to patent publication US20230257429A1, “PEPTIDE ADJUVANT FOR ITS THERAPEUTIC APPLICATIONS IN VIRAL AND TUMOUR VACCINE DEVELOPMENT AND CANCER IMMUNOTHERAPY AND AUTOIMMUNE DISEASE DIAGNOSIS AND TREATMENTS” (National University of Singapore, priority 2020, published 2023):
Some results were stated once for a whole list of compounds, not compound by compound. Not every detail of the peptide structures is certain; ends, links or a residue may be inferred. Peptide text beside a SMILES is read from it.

Tested on: red blood cells (RBC)
Assay: Hemolytic assay
Conditions: 1 hr at 37° C., normalized to Triton X-100

For `N=C(N)NCCC[C@H](NC(=O)[C@H](CCCNC(=N)N)NC(=O)[C@H](CCCNC(=N)N)NC(=O)[C@H](CCCNC(=N)N)NC(=O)[C@H](CCCNC(=N)N)NC(=O)[C@H](CCCNC(=N)N)NC(=O)[C@H](CCCNC(=N)N)NC(=O)[C@H](CCCNC(=N)N)NC(=O)[C@H](CCCNC(=N)N)NC(=O)[C@H](CCCNC(=N)N)NC(=O)[C@H](CCCNC(=N)N)NC(=O)[C@H](CCCNC(=N)N)NC(=O)[C@H](CCCNC(=N)N)NC(=O)[C@H](CCCNC(=N)N)NC(=O)[C@H](CCCNC(=N)N)NC(=O)[C@@H](N)CCCNC(=N)N)C(=O)O` [CPP3, RRRRRRRRRRRRRRRR, reference compound] (H-RRRRRRRRRRRRRRRR-OH), the haemolysis was “little haemolysis”.
